From article PMC3774711
Changes are numbered by the printed parent chain. No constants are given. Whether binding was seen depends on the method and setting. In cells and extracts the contact can be indirect. Some results given as binding are weak or reduced against the parent protein; the word gives no strength. For some of these results: Sequences can lack the tags named with a protein.

B1: Popeye domain containing 1 (Popdc1), endogenous in neonatal rat cardiomyocytes (protein, UniProt Q3BCU4 1-356)
chain: MNFTEPSPLAQSTVVGFLPELESLTPVPSNETSCENWREVHHLVFHAANVCFAVGLLIPTTLHLHMILLRVMLSIGCTLYVVWATLYRCALDMMIWNSVFLGINILHLSYLLYKKRPVKIEKDLGGVYHRLFEPLRVPPDLFRRLTGQFCVIQTLKRGQVYATEDKTSVDDRLSILLKGRMKVSYRGHFLHNIYPCAFIDSPEFRSTQMHKGEKFQVTIVADDNCRFLCWSRERLTYFLESEPFLYEIFRYLIGKDITNKLYSLNDPTLNDKKVKKLEPQMSLSTQISMLEMRNSITSSSDIEDGLHHFLRGSSSTASLPMSSPQQRASPKMKPIEEGLEDDDEVFVPVSPAHQLP
B2: caveolin3 (Cav3) expressed in COS7 cells (protein, UniProt P51637 1-151)
chain: MMTEEHTDLEARIIKDIHCKEIDLVNRDPKNINEDIVKVDFEDVIAEPEGTYSFDGVWKVSFTTFTVSKYWCYRLLSTLLGVPLALLWGFLFACISFCHIWAVVPCIKSYLIEIQCISHIYSLCIRTFCNPLFAALGQVCSNIKVVLRREG

Key:
[1] = target: T1, caveolin3 (Cav3), endogenous in neonatal rat cardiomyocytes (rat (endogenous in neonatal rat cardiomyocytes)) (UniProt P51638); test: co-IP; neonatal rat cardiomyocytes treated with the membrane permeable crosslinker dithio-bis-succinimidylpropionate; extracts incubated with rabbit anti-Popdc1 or mouse anti-Cav3 (or IgG controls), Protein A-Sepharose; Western blot for Popdc1 and Cav3
T1 sequence: B2 chain with K59R, F62Y

[2] = target: T2, murine Myc-tagged Popdc1Δ116 (Popdc1 lacking 116 amino acids at the C terminus) (mouse) (UniProt Q9ES83); test: co-IP; lysates of COS7 cells co-transfected with Cav3 and Myc-tagged Popdc1 constructs; agarose bound anti-Myc antibody; Western blot with anti-Cav3
T2 sequence: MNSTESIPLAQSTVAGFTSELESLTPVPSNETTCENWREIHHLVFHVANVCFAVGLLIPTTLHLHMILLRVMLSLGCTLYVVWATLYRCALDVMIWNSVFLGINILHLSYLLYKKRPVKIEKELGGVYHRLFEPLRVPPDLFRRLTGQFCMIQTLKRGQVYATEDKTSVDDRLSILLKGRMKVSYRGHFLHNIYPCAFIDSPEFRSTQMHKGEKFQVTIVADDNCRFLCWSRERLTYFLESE

[3] = target: T3, murine Myc-tagged Popdc1Δ92 (Popdc1 lacking 92 amino acids at the C terminus) (mouse) (UniProt Q9ES83); test: as above
T3 sequence: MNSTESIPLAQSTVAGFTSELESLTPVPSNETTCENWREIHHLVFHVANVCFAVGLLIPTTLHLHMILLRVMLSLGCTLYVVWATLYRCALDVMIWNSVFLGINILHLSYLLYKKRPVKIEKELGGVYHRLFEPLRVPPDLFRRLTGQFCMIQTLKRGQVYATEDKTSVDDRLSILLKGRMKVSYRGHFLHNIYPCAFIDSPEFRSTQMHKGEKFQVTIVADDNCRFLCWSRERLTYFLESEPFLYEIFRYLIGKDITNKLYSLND

[4] = target: T4, murine Myc-tagged full-length Popdc1 (mouse) (UniProt Q9ES83); test: as above
T4 sequence: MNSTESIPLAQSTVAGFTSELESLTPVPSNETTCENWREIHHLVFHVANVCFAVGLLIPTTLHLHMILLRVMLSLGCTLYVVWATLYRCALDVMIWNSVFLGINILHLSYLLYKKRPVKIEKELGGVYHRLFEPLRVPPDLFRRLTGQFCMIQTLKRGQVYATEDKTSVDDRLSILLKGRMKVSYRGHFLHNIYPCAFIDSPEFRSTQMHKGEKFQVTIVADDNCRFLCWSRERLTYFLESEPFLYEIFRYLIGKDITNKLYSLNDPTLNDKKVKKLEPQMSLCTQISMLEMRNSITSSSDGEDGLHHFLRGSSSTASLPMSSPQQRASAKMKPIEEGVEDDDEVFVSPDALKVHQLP

| Binder | binding [1] | binding [2] | binding [3] | binding [4] |
| --- | --- | --- | --- | --- |
| B1 | binds | – | – | – |
| B2 | – | no binding | binds | binds |
